Patent US20100261245
For at least one entry, the source does not settle the construct or the ends of the probe. No signal at the amounts used counts as a negative.

Test system: VEGF
Assay: SPR
Conditions: described as DNA, printed with m after each base; no binding affinity, BIAcore 2000, aptamer 30-500 nM; purified recombinant protein; single-stranded DNA; variant of anti-VEGF 2'-OMe-RNA aptamer

ATGCAGTTTGAGAAGTCGCGCAT [anti-VEGF DNA aptamer (same sequence)]
binding result: no binding
